Measured values as given in the supplement of paper PMC12823440, “Inhibitors supercharge kinase turnover through native proteolytic circuits” (Nature, 2025).
Structures can show the parent of a compound that is named as a salt. The list shows a part of the results. The calls rarely recur for the same compound in another form.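 In K562 cells expressing nanoluciferase-fused kinases, luminescence was recorded at 4 h intervals between 2 and 18 h, normalized as percent of control with DMSO at 100% and a positive control at 0%. A significant (2 sigma) signal drop marks a time point as decreased. The authors' rule for a hit is not shown and takes in more than the number of time points.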

Sequences of proteins named here, by UniProt entry; tags and fusion partners are left off. A change or cut given only in a name is not applied to a line headed by its entry.
UniProt P00519, whole entry: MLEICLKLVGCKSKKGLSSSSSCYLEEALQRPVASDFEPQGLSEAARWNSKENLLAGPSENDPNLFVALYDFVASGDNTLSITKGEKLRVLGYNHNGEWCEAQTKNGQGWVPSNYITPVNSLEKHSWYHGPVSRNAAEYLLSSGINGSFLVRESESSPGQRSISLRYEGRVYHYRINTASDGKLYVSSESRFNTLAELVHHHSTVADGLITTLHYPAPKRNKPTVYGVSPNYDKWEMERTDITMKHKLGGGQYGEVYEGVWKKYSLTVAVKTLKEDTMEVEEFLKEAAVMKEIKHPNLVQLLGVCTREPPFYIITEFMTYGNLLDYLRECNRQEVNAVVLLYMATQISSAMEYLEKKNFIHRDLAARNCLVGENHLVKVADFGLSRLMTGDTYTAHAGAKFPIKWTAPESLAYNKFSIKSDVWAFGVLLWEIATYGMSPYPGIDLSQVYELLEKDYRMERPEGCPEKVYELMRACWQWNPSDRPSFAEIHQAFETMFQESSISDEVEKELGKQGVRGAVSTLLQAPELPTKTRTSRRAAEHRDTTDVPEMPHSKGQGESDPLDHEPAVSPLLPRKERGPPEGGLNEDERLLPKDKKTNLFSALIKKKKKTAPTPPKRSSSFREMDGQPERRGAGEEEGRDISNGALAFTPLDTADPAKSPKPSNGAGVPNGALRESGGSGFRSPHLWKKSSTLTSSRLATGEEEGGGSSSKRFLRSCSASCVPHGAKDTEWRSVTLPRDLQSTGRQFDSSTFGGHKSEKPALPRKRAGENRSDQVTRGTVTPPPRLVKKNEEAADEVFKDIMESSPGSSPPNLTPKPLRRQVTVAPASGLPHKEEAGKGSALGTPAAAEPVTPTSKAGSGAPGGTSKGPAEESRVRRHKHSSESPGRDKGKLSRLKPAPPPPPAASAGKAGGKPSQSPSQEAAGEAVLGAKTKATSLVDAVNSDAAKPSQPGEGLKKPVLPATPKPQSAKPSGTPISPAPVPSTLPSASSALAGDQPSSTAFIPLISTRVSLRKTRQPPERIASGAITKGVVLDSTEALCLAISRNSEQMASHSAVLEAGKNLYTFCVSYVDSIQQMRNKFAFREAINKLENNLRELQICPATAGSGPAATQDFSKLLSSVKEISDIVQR
UniProt P31749: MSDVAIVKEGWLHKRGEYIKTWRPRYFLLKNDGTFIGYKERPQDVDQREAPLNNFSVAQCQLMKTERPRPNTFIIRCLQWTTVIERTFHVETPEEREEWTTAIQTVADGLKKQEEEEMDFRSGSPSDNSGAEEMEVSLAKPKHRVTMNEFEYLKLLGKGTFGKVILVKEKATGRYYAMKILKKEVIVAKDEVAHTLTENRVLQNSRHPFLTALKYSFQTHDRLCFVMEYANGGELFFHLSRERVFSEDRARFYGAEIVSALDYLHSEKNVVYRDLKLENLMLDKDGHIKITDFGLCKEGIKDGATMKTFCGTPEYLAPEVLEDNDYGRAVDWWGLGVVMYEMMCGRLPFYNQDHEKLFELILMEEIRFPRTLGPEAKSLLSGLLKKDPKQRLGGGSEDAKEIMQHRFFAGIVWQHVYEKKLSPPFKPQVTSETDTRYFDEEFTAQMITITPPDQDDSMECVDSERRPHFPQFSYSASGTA
UniProt Q9UM73: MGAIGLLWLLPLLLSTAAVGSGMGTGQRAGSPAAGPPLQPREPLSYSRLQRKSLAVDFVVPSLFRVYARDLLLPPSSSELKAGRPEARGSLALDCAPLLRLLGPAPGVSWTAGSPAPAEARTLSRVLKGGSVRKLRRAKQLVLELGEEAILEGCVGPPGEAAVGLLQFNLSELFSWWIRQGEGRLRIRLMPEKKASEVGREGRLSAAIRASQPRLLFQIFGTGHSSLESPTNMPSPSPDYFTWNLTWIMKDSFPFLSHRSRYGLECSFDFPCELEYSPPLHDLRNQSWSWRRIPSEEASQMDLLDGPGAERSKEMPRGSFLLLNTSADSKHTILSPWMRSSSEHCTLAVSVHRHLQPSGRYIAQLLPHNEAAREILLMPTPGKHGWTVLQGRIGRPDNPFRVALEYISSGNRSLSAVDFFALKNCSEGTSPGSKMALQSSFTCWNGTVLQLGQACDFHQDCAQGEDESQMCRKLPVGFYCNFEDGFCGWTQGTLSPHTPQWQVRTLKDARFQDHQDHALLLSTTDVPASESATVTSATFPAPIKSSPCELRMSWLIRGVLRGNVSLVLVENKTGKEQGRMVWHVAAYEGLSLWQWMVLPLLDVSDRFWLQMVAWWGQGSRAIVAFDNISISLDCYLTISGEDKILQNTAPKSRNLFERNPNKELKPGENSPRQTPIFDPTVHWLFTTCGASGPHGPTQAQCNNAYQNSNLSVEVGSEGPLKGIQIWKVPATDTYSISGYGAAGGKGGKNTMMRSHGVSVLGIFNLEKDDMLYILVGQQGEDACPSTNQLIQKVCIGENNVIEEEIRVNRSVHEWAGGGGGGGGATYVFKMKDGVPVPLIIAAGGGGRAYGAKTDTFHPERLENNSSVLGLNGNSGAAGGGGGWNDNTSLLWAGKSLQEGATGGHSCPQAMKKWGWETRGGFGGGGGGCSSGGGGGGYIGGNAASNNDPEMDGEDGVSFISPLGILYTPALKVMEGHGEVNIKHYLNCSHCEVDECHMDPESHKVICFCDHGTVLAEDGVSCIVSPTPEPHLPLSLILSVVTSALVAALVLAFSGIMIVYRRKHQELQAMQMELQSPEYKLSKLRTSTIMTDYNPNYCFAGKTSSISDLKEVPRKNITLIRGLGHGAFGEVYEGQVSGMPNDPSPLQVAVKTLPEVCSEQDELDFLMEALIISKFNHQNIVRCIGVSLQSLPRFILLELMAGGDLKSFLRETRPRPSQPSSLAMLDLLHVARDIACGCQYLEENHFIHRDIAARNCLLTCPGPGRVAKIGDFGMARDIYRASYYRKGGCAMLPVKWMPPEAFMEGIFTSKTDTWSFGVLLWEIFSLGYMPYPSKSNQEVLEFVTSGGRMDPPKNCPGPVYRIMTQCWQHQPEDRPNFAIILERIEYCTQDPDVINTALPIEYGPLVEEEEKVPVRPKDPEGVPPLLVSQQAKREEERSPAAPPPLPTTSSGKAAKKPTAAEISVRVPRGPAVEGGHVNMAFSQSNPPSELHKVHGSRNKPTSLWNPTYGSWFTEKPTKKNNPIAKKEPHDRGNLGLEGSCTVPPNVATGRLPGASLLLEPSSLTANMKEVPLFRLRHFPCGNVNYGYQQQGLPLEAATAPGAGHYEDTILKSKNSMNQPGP
UniProt P10398: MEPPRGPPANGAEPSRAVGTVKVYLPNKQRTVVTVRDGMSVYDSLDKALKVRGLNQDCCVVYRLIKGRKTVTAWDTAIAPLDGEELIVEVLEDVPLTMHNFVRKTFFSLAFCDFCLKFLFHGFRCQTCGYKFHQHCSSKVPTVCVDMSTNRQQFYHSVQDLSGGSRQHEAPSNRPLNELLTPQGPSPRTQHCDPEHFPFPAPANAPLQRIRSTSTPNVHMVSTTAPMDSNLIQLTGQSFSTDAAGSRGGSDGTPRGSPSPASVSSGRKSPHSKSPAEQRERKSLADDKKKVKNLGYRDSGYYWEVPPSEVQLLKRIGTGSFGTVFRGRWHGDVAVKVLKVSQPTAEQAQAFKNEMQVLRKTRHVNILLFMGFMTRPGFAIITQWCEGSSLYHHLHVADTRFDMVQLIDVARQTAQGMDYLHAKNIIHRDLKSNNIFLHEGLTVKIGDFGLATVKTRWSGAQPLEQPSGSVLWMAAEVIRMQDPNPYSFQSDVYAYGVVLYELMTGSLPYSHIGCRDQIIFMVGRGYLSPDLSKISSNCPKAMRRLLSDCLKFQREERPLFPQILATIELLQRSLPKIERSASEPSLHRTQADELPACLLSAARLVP
UniProt O14965: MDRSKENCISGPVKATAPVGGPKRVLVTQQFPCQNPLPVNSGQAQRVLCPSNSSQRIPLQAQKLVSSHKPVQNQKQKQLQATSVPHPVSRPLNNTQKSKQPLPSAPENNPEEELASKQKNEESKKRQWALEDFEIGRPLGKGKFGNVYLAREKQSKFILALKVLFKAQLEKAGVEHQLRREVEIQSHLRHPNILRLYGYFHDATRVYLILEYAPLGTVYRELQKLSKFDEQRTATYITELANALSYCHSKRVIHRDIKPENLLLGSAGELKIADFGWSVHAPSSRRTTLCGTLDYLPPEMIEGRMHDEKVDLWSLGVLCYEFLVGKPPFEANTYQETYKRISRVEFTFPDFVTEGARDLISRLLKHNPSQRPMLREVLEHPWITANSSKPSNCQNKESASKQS
UniProt Q96GD4, whole entry: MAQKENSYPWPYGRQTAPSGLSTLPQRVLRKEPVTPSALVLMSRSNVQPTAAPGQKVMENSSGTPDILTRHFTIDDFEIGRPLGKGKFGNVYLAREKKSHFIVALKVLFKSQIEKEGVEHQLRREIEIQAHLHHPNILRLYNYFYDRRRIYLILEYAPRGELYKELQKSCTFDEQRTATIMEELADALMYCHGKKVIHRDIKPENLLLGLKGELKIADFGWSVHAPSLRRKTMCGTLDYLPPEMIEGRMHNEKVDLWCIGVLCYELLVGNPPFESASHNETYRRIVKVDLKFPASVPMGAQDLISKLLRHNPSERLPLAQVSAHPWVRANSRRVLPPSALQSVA
UniProt Q9UQB9: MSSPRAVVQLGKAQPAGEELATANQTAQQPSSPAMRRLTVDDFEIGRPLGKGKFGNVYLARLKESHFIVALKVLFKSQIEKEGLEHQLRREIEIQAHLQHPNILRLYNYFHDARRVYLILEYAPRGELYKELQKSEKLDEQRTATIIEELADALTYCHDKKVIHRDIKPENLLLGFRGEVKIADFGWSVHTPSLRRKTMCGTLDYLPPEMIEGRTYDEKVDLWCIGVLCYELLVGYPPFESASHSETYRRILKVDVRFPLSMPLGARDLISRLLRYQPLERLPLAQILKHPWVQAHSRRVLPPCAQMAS
UniProt P51451: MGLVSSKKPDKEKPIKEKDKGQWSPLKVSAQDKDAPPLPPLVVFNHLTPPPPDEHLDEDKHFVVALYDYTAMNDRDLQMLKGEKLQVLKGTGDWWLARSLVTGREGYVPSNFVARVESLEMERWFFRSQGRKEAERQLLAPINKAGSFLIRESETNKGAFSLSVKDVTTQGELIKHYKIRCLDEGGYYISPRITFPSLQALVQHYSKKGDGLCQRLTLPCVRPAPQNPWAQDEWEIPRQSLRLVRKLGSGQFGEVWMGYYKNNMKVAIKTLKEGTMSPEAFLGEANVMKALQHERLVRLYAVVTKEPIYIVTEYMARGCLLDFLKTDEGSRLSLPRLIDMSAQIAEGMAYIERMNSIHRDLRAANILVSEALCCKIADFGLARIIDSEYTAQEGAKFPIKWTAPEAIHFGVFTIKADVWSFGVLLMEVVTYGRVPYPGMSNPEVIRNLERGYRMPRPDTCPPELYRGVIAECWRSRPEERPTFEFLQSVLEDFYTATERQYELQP
UniProt P51813: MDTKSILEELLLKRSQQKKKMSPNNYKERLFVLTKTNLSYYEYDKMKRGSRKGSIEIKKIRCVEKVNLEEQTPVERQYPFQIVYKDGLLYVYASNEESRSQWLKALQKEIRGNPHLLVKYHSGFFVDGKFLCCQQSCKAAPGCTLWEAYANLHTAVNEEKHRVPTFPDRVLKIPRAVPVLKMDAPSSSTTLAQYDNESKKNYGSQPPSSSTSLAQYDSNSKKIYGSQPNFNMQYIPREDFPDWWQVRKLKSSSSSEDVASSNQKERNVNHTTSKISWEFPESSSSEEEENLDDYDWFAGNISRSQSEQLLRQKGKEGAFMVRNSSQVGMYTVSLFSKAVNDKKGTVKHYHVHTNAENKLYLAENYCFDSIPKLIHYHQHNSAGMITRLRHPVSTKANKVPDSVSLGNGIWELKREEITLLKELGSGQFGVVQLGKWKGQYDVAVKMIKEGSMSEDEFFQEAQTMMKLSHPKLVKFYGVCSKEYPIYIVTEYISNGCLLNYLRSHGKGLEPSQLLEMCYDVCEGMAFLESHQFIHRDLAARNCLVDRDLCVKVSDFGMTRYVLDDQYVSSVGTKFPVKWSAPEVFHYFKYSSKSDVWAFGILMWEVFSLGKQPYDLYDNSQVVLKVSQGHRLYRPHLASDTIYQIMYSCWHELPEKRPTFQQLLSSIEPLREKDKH

Tests used:
Assay in all cases: kinase-Nluc reporter destabilization hit call (1 = scored as downregulated) (binary); higher = compound decreases kinase abundance
Conditions in all cases: K562; 2-18 h
ABL1 = ABL1 (UniProt P00519)
AKT1 = AKT1 (UniProt P31749)
ALK = ALK (UniProt Q9UM73)
ARAF = ARAF (UniProt P10398)
AURKA = AURKA (UniProt O14965)
AURKB = AURKB (UniProt Q96GD4)
AURKC = AURKC (UniProt Q9UQB9)
BLK = BLK (UniProt P51451)
BMX = BMX (UniProt P51813)
BRAF = BRAF (UniProt P15056)

Measured: kinase-Nluc reporter destabilization hit call

Nc1ncc(-c2ccnc(Nc3ccncc3)n2)c(CC2CC2)n1 (10 µM)
inactive: ABL1 = 0 | AKT1 = 0 | ALK 0 | ARAF 0 | AURKA 0 | AURKB 0 | AURKC 0 | BLK 0 | BMX 0 | BRAF 0

Cc1cnc(NC(=O)c2cc(Oc3cnc(C(=O)N(C)C)nc3)c3cc(C)oc3c2)cn1 (10 µM)
inactive: ABL1 = 0 | AKT1 = 0 | ALK 0 | ARAF 0 | AURKA 0 | AURKB 0 | AURKC 0 | BLK 0 | BMX 0 | BRAF 0

Cn1cc(-c2cc(Oc3cc(F)c(NC(=O)C4(C(=O)Nc5ccccc5)CC4)cc3F)ccn2)cn1 (2.5 µM)
inactive: ABL1 = 0 | AKT1 = 0 | ALK 0 | ARAF 0 | AURKA 0 | AURKB 0 | AURKC 0 | BLK 0 | BMX 0 | BRAF 0

C=CC(=O)N1CCC[C@@H](n2nc(-c3ccc(Oc4ccccc4)cc3)c3c(N)n[nH]c(=O)c32)C1 [BTK inhibitor 17] (10 µM)
inactive: ABL1 = 0 | AKT1 = 0 | ALK 0 | ARAF 0 | AURKA 0 | AURKB 0 | AURKC 0 | BLK 0 | BMX 0 | BRAF 0

CC(O)(C#Cc1ccc2c(c1)N(c1nc(N)ncc1Cl)CC2)c1nccs1 (stereo not given) (2.5 µM)
inactive: ABL1 = 0 | AKT1 = 0 | ALK 0 | ARAF 0 | AURKA 0 | AURKB 0 | AURKC 0 | BLK 0 | BMX 0 | BRAF 0

Oc1c(F)cc(-c2cnccc2-c2ccc(N3CCOCC3)cc2)cc1F (10 µM)
inactive: ABL1 = 0 | AKT1 = 0 | ALK 0 | ARAF 0 | AURKA 0 | AURKB 0 | AURKC 0 | BLK 0 | BMX 0 | BRAF 0

CCCCCc1ccc(/C=C/[C@H](O)[C@@H](CO)NC)cc1 [SK1-I (hydrochloride)] (10 µM)
inactive: ABL1 = 0 | AKT1 = 0 | ALK 0 | ARAF 0 | AURKA 0 | AURKB 0 | AURKC 0 | BLK 0 | BMX 0 | BRAF 0

COC(=O)/C=C/c1ccccc1 [Methyl cinnamate] (10 µM)
inactive: ABL1 = 0 | AKT1 = 0 | ALK 0 | ARAF 0 | AURKA 0 | AURKB 0 | AURKC 0 | BLK 0 | BMX 0 | BRAF 0

O=C(Nc1cc(Cl)cc2c1[nH]c1cnccc12)c1cccnc1 (10 µM)
inactive: ABL1 = 0 | AKT1 = 0 | ALK 0 | ARAF 0 | AURKA 0 | AURKB 0 | AURKC 0 | BLK 0 | BMX 0 | BRAF 0

O=C1CC[C@H](NC(=O)Cc2ccccc2)C(=O)N1 [Antineoplaston A10] (10 µM)
inactive: ABL1 = 0 | AKT1 = 0 | ALK 0 | ARAF 0 | AURKA 0 | AURKB 0 | AURKC 0 | BLK 0 | BMX 0 | BRAF 0

C=C1CCC[C@]2(C)C=C3OC(=O)C(C)=C3C[C@@H]12 [Atractylenolide I] (10 µM)
inactive: ABL1 = 0 | AKT1 = 0 | ALK 0 | ARAF 0 | AURKA 0 | AURKB 0 | AURKC 0 | BLK 0 | BMX 0 | BRAF 0

COC(=O)Nc1ccc(-c2nc(N3CCOCC3)c3cnn(C4CCN(C(=O)OC)CC4)c3n2)cc1 (10 µM)
inactive: ABL1 = 0 | AKT1 = 0 | ALK 0 | ARAF 0 | AURKA 0 | AURKB 0 | AURKC 0 | BLK 0 | BMX 0 | BRAF 0

CCn1c(-c2nonc2N)nc2c(C#CC(C)(C)O)ncc(OC[C@H]3CCCNC3)c21 (10 µM)
inactive: ABL1 = 0 | AKT1 = 0 | ALK 0 | ARAF 0 | AURKA 0 | AURKB 0 | AURKC 0 | BLK 0 | BMX 0 | BRAF 0

Cc1cc(Nc2cc(N3CCN(C)CC3)nc(Nc3ccc([N+](=O)[O-])cc3)n2)n[nH]1 (2.5 µM)
inactive: ABL1 = 0 | AKT1 = 0 | ALK 0 | ARAF 0 | AURKA 0 | AURKB 0 | AURKC 0 | BLK 0 | BMX 0 | BRAF 0

CC1(N)CCN(c2cccnc2NC(=O)c2nc(-c3ncccc3C(F)(F)F)cnc2N)CC1 [Darovasertib] (10 µM)
inactive: ABL1 = 0 | AKT1 = 0 | ALK 0 | ARAF 0 | AURKA 0 | AURKB 0 | AURKC 0 | BLK 0 | BMX 0 | BRAF 0

NC(=O)c1ccc(N(C(N)=O)c2c(F)cccc2F)nc1-c1ccc(F)cc1F (10 µM)
inactive: ABL1 = 0 | AKT1 = 0 | ALK 0 | ARAF 0 | AURKA 0 | AURKB 0 | AURKC 0 | BLK 0 | BMX 0 | BRAF 0

Nc1[nH]nc2nc(-c3ccc(NS(=O)(=O)c4cc(Cl)ccc4Cl)cc3)cnc12 (10 µM)
inactive: ABL1 = 0 | AKT1 = 0 | ALK 0 | ARAF 0 | AURKA 0 | AURKB 0 | AURKC 0 | BLK 0 | BMX 0 | BRAF 0

An excerpt from above in order of formula weight, high to low:
Oc1c(F)cc(-c2cnccc2-c2ccc(N3CCOCC3)cc2)cc1F (10 µM)
inactive: ABL1 = 0 | AKT1 = 0 | ALK 0 | ARAF 0 | AURKA 0 | AURKB 0 | AURKC 0 | BLK 0 | BMX 0 | BRAF 0

O=C(Nc1cc(Cl)cc2c1[nH]c1cnccc12)c1cccnc1 (10 µM)
inactive: ABL1 = 0 | AKT1 = 0 | ALK 0 | ARAF 0 | AURKA 0 | AURKB 0 | AURKC 0 | BLK 0 | BMX 0 | BRAF 0

COC(=O)/C=C/c1ccccc1 [Methyl cinnamate] (10 µM)
inactive: ABL1 = 0 | AKT1 = 0 | ALK 0 | ARAF 0 | AURKA 0 | AURKB 0 | AURKC 0 | BLK 0 | BMX 0 | BRAF 0

(continued)

COc1cc(-c2cc(OP(=O)(O)O)cc(-c3cc(OC)c(OC)c(OC)c3)c2)cc(OC)c1OC [Stafia-1] (10 µM)
inactive: ABL1 = 0 | AKT1 = 0 | ALK 0 | ARAF 0 | AURKA 0 | AURKB 0 | AURKC 0 | BLK 0 | BMX 0 | BRAF 0

O=C(Nc1cccc(-c2nc(-c3ccc(NC(=O)c4cccnc4)cc3Cl)no2)c1)Nc1ccc(NC(=O)C2CC2)c(C(F)(F)F)c1 (2.5 µM)
inactive: ABL1 = 0 | AKT1 = 0 | ALK 0 | ARAF 0 | AURKA 0 | AURKB 0 | AURKC 0 | BLK 0 | BMX 0 | BRAF 0

COc1cc2c(cc1Nc1ncc(C(N)=O)c(Nc3c(F)cccc3C(F)(F)F)n1)CN(C)CC2 (2.5 µM)
inactive: ABL1 = 0 | AKT1 = 0 | ALK 0 | ARAF 0 | AURKA 0 | AURKB 0 | AURKC 0 | BLK 0 | BMX 0 | BRAF 0

Cc1c(C(=O)Nc2ccc(Oc3ccnc4[nH]cc(-c5ccccc5)c34)c(F)c2)c(=O)n(-c2ccc(F)cc2)n1C (10 µM)
inactive: ABL1 = 0 | AKT1 = 0 | ALK 0 | ARAF 0 | AURKA 0 | AURKB 0 | AURKC 0 | BLK 0 | BMX 0 | BRAF 0

Nc1ncc(C(=O)NC2CN(C(=O)C3CC3)C2)c2ccc(-c3cccc(F)c3)nc12 (2 µM)
inactive: ABL1 = 0 | AKT1 = 0 | ALK 0 | ARAF 0 | AURKA 0 | AURKB 0 | AURKC 0 | BLK 0 | BMX 0 | BRAF 0

COc1c(O)cc2oc(-c3ccc(O)cc3)cc(=O)c2c1O [Hispidulin] (10 µM)
inactive: ABL1 = 0 | AKT1 = 0 | ALK 0 | ARAF 0 | AURKA 0 | AURKB 0 | AURKC 0 | BLK 0 | BMX 0 | BRAF 0

CN1CCN(c2ccc(Nc3ncc4cc(C#N)c(=O)n(C5CCCC5)c4n3)cc2)CC1 (10 µM)
inactive: ABL1 = 0 | AKT1 = 0 | ALK 0 | ARAF 0 | AURKA 0 | AURKB 0 | AURKC 0 | BLK 0 | BMX 0 | BRAF 0

c1ccc(Cn2c(-c3ccc(OC[C@H](C4CCNCC4)n4c(-c5ccccc5)nc5ccccc54)cc3)nc3ccccc32)cc1 [Deltarasin] (2.5 µM)
inactive: ABL1 = 0 | AKT1 = 0 | ALK 0 | ARAF 0 | AURKA 0 | AURKB 0 | AURKC 0 | BLK 0 | BMX 0 | BRAF 0

N#Cc1ccc(-c2cnc3[nH]cc(NC(=O)c4cccnc4)c3c2)cc1 (10 µM)
inactive: ABL1 = 0 | AKT1 = 0 | ALK 0 | ARAF 0 | AURKA 0 | AURKB 0 | AURKC 0 | BLK 0 | BMX 0 | BRAF 0

N#Cc1ccc2ncnc(NCCc3ccccc3)c2c1 [Senexin A] (10 µM)
inactive: ABL1 = 0 | AKT1 = 0 | ALK 0 | ARAF 0 | AURKA 0 | AURKB 0 | AURKC 0 | BLK 0 | BMX 0 | BRAF 0
